# Where “and” joins values, the source holds several entries; their conditions need not be identical. Equal values may be shown once. The list shows a part of the results. These are further read-outs of the screen, such as a control signal, another cell line or another target. No call is given for them. Compounds called inactive in the main read-out are mostly missing here. Potencies come from curve fits of mixed quality, noted in brackets.
# Assay: qHTS Assay for Lipid Storage Modulators in Drosophila S3 Cells;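 as to cell number change: cells counted by Cell Tracker Red CMTPX staining in the red channel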
# Details: BODIPY lipid droplet fluorescence, 18-24 h; for cell number change: measured here: cell count max response, cells fed with added oleic acid
# Method in brief: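 Drosophila S3 cells loaded with oleic acid (400 uM, as added) and compounds at several concentrations; lipid droplets imaged by 488-nm laser-scanning cytometry, 500–530 nm intensity and object ratio to cell channel. Percent activity normalized to 20 uM Triacsin C.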
# [1] = measured here: lipid fluorescence (Fed channel) AC50, cells fed with added oleic acid
# [2] = measured here: cell number channel AC50, cells fed with added oleic acid
SMILES,cell number change,AC50 [1],AC50 [2]
C/C=C/C(=O)OCC(=O)Nc1nc2ccc(C)cc2s1,0.583%,"0.651 µM [rising, full curve, poor fit]",
CN(C)S(=O)(=O)c1cccc(NC(=O)COC(=O)c2c[nH]c(=O)[nH]c2=O)c1,-41.8%,,
Cc1cccn2c(=O)nc(SCC(=O)NCc3ccc4c(c3)OCO4)nc12,,"6.51 µM [rising, single point]",
CCCOc1cccc(C(=O)Nc2cccc3ncccc23)c1,-21.7%,"29.1 µM [falling, single point]",
CC(=O)Nc1ccc(NC(=O)c2ccccc2S(=O)(=O)c2ccccc2[N+](=O)[O-])cc1,52.5%,"29.1 µM [falling, single point]","29.1 µM [rising, single point]"
CC1c2cc3c(cc2CCN1CC(=O)Nc1ccc(S(=O)(=O)N2CCCC2)cc1)OCCCO3 (centres undefined),-8.36%,"29.1 µM [falling, single point]",
COc1ccccc1C1C2=C(CCCC2=O)N(CC(=O)O)C2=C1C(=O)CCC2,6.59%,"25.9 µM [rising, single point]",
CCOP(=O)(OCC)C(NC(=O)c1cccs1)c1ccccc1 (centres undefined),6.72%,"6.51 µM [rising, single point]",
Cc1ccc(C)c(NC(=S)NNC(=O)c2csc3c2CCCC3)c1,-1.94%,"0.103 µM [rising, full curve, poor fit]","0.13 µM [rising, full curve, poor fit]"
Cc1ccc(NC(=O)CNC(=O)Cc2cccc3ccccc23)nc1,,"16.4 µM [rising, partial curve]",
COc1ccc(S(=O)(=O)N2CCOCC2)cc1C(=O)NC1CCCCCC1,,"0.326 µM [falling, partial curve]",
Cc1ccc2nc3c(cc(C(=O)NCC4CCCO4)c(=N)n3C3CCCC3)c(=O)n2c1 (centres undefined),-7.62%,"29.1 µM [rising, partial curve]",
Cn1c(COc2ccc([N+](=O)[O-])cc2)nnc1SCC(=O)NCC1CCCO1 (centres undefined),-20%,"0.206 µM [rising, single point]",
CC(C)c1ccc(N(CC(=O)NC2CCCC2)C(=O)CCC(=O)Nc2nccs2)cc1,-4.62%,,
C/C(CC(=O)Nc1ccc(Cl)cc1C(F)(F)F)=N\NC(=O)c1cccs1,,"0.366 µM [rising, full curve, poor fit]",
O=C(CCCN1C(=O)/C(=C/c2cccc(Br)c2)SC1=S)N1CCOCC1,-1.9%,,"0.731 µM [rising, single point]"
CCn1cc(C(=O)NCCCOC(C)C)c(=O)c2cc(S(=O)(=O)N3CCOCC3)ccc21,,"23.1 µM [falling, single point]",
CCN(CC)C1CCN(C(=O)c2ccc(OC3CCN(Cc4ccccn4)CC3)cc2)C1 (centres undefined),-19.6%,"0.82 µM [falling, single point]",
Cc1cc(=O)oc2cc(OCC(=O)N3CC[C@@]4(O)CCCC[C@H]4C3)c(Cl)cc12,-17.2%,,
O=C(COc1cc(Cl)c(Cl)cc1Cl)NC(=O)Nc1ccc2c(c1)OCCO2,-12%,"0.00517 µM [falling, full curve, poor fit]",

# Reformatted with bars between the fields: 2 of the compounds above
SMILES | cell number change | AC50 [1] | AC50 [2]
CN(C)S(=O)(=O)c1cccc(NC(=O)COC(=O)c2c[nH]c(=O)[nH]c2=O)c1 | -41.8% |  | 
Cc1ccc(C)c(NC(=S)NNC(=O)c2csc3c2CCCC3)c1 | -1.94% | 0.103 µM [rising, full curve, poor fit] | 0.13 µM [rising, full curve, poor fit]

# Additional results

SMILES,cell number change,AC50 [1],AC50 [2]
O=C1c2oc3ccccc3c(=O)c2C(c2cccnc2)N1Cc1ccco1 (centres undefined),,"0.0731 µM [rising, full curve, poor fit]","0.058 µM [rising, full curve, poor fit]"
CN(C)S(=O)(=O)c1ccc(NC(=O)N2CCN(c3ccccc3)CC2)cc1,171%,,"29.1 µM [rising, partial curve, poor fit]"
O=C(O)/C=C\C(=O)Nc1ccc(N2CCN(c3cccc(Cl)c3)CC2)cc1,-53.9%,"20.6 µM [falling, single point]","20.6 µM [falling, single point]"
COc1cc(N=Nc2c(O)c3ccccc3[nH]c2=O)c(OC)cc1N=Nc1ccccc1,-43.9%,"0.184 µM [falling, full curve, poor fit]","0.0731 µM [falling, full curve, poor fit]"
CSc1nc2nccc(-c3ccc(-c4ccccc4)cc3)n2n1,10.8%,"0.517 µM [rising, full curve]","0.731 µM [rising, full curve]"
CCc1ccccc1S(=O)(=O)Cc1ccc(C(=O)NCc2ccc3c(c2)OCO3)o1,,"0.103 µM [rising, full curve]","0.0731 µM [rising, full curve, poor fit]"
COc1ccccc1-c1nnc2sc(COc3ccc(Cl)cc3)nn12,,"5.8 µM [rising, single point]","6.51 µM [rising, single point]"
O=C(CN1CCN(c2ncccn2)CC1)N1CCCC1,1.12%,"1.46 µM [falling, partial curve]",
O=C(CCNc1cccc(Cl)c1)c1ccco1,14%,"18.4 µM [rising, single point]",
Cc1c(NC(=O)C(C)OC(=O)/C=C/c2ccc(OC(F)F)cc2)c(=O)n(-c2ccccc2)n1C (centres undefined),8.5%,,
CCOC(=O)c1c(C)[nH]c2c1cc(O)c1ccccc12,-8.6%,"8.2 µM [falling, partial curve, poor fit]",
O=C(NC1CCCN(Cc2ccc(Cl)cc2)C1)c1ccccc1C(F)(F)F (centres undefined),0.824%,"6.51 µM [rising, single point]",
N#Cc1ccccc1OCC(=O)N1CCN(S(=O)(=O)c2ccc(Cl)cc2)CC1,2.39%,,"0.651 µM [falling, single point]"
CC1(C)Oc2ccc3ccc(=O)oc3c2-c2cn[nH]c21,163%,"3.26 µM [rising, full curve]","2.91 µM [rising, full curve]"
CC(C)OC(=O)C1C2C=CC3(CN(C(C)c4ccc(Br)cc4)C(=O)C13)O2 (centres undefined),,"0.00461 µM [rising, full curve, poor fit]",
Cn1c2ccc(F)cc2c2ncn(CCN3CCOCC3)c(=O)c21,236%,"6.51 µM [rising, partial curve]","16.4 µM [rising, partial curve]"
O=C(Nc1nc(-c2cccnc2)cs1)c1ccc(S(=O)(=O)N2CCOCC2)cc1,-14.3%,,
N/N=C/C(=N\Nc1ccc(Cl)cc1)C(=O)c1ccncc1,-0.292%,"0.184 µM [rising, full curve, poor fit]",
CC(=O)Oc1ccc(N(C(C)=O)S(=O)(=O)c2cccs2)cc1,,,"6.51 µM [falling, single point]"
NNC(=O)CNc1cccc(Br)c1,-5.6%,"20.6 µM [rising, single point]",

SMILES,cell number change,AC50 [1],AC50 [2]
CCCn1cnc2cc(NCc3cccc(OC)c3)ccc21,144%,,"0.259 µM [rising, partial curve, poor fit]"
Cc1ccc(-n2cc(CNCCn3nc(C)cc3C)c(-c3ccc(F)cc3)n2)cc1,-65.5%,"18.4 µM [falling, single point]","29.1 µM [falling, single point]"
COc1ccc2nc(C)cc(C(=O)O)c2c1,3.34%,,
CCOC(=O)N1CCC(N2Cc3cccc(C(=O)Nc4ccc(OC)c(OC)c4)c3C2=O)CC1,23.3%,"0.00461 µM [rising, full curve, poor fit]",
C=CCN(C(=O)CSc1nc2[nH]ncc2c(=O)n1-c1ccccc1OC)c1ccccc1,7.92%,"4.11 µM [rising, full curve, poor fit]",
COc1cc2c(cc1OC)CN(CC(=O)Nc1ccc(C)c(C)c1)CC2,50%,,"2.31 µM [rising, partial curve, poor fit]"
O=C(NC1=NCCS1)c1ccc(Cl)c(S(=O)(=O)N2CCCCC2)c1,132%,"18.4 µM [rising, partial curve]","16.4 µM [rising, partial curve]"
O=C(NCCSc1c[nH]c2ccccc12)c1ccc(Br)o1,-19.4%,"23.1 µM [falling, single point]",
COC(=O)C1=C(C)N(Cc2ccccc2)C(=NCc2cc(OC)c(OC)c(OC)c2)N[C@H]1c1ccccc1,8.41% and -6.93%,,
CC1CCCCC1NC(=O)CSc1nnc(-c2ccncc2)n1CCCN(C)C (centres undefined),-10.5%,,
CC1CCN(C2=NC(=O)/C(=C/c3ccc(O)cc3)S2)CC1,-24.4%,"29.1 µM [falling, single point]",
COc1ccc2ccccc2c1C1CC(=O)N2CN(Cc3ccco3)CSC2=C1C#N (centres undefined),14.8%,,
COc1ccc(CCNC(=O)C2CCN(S(=O)(=O)c3c(C)noc3C)CC2)cc1OC,7.58%,"4.11 µM [falling, single point]",
C=CCc1cc(C=O)cc(OC)c1OCc1c(Cl)cccc1Cl,-26.3%,"25.9 µM [falling, single point]",
COC(C[C@H](O)[C@H](C)[C@@H](O)COCc1ccccc1)OC,20.6%,"18.4 µM [rising, single point]",
Cc1cccc(N(CC(=O)NC2CC3CCC2C3)S(=O)(=O)c2ccccc2)c1 (centres undefined),,"29.1 µM [falling, single point]",
Cc1nn(-c2ccc(F)cc2)c2nc(N)c(C#N)c(-c3cccs3)c12,,"1.84 µM [rising, partial curve]","2.06 µM [rising, partial curve]"
Cc1cc2c(cn1)C(CCC#N)(CCC#N)c1ccccc1-2,-12.9%,"0.58 µM [falling, single point]",
CCN1CCN(C(=O)CN2C(=O)c3ccccc3S2(=O)=O)CC1,-21.9%,,

# Three successive entries already listed:
SMILES,cell number change,AC50 [1],AC50 [2]
CC1CCCCC1NC(=O)CSc1nnc(-c2ccncc2)n1CCCN(C)C (centres undefined),-10.5%,,
CC1CCN(C2=NC(=O)/C(=C/c3ccc(O)cc3)S2)CC1,-24.4%,"29.1 µM [falling, single point]",
COc1ccc2ccccc2c1C1CC(=O)N2CN(Cc3ccco3)CSC2=C1C#N (centres undefined),14.8%,,

# — PubChem BioAssay AID2685 (National Center for Advancing Translational Sciences (NCATS), 2010)
